# Laboratory results taken from the supplement of paper PMC12819154, “High-throughput peptide-centric local stability assay extends protein–ligand identification to membrane proteins, tissues and bacteria” (Nature Structural & Molecular Biology, 2025).
# Amino acid sequences for entries named in this document (tags omitted). A change or cut given only in a name is not applied to a line headed by its entry.
# UniProt Q96PE1: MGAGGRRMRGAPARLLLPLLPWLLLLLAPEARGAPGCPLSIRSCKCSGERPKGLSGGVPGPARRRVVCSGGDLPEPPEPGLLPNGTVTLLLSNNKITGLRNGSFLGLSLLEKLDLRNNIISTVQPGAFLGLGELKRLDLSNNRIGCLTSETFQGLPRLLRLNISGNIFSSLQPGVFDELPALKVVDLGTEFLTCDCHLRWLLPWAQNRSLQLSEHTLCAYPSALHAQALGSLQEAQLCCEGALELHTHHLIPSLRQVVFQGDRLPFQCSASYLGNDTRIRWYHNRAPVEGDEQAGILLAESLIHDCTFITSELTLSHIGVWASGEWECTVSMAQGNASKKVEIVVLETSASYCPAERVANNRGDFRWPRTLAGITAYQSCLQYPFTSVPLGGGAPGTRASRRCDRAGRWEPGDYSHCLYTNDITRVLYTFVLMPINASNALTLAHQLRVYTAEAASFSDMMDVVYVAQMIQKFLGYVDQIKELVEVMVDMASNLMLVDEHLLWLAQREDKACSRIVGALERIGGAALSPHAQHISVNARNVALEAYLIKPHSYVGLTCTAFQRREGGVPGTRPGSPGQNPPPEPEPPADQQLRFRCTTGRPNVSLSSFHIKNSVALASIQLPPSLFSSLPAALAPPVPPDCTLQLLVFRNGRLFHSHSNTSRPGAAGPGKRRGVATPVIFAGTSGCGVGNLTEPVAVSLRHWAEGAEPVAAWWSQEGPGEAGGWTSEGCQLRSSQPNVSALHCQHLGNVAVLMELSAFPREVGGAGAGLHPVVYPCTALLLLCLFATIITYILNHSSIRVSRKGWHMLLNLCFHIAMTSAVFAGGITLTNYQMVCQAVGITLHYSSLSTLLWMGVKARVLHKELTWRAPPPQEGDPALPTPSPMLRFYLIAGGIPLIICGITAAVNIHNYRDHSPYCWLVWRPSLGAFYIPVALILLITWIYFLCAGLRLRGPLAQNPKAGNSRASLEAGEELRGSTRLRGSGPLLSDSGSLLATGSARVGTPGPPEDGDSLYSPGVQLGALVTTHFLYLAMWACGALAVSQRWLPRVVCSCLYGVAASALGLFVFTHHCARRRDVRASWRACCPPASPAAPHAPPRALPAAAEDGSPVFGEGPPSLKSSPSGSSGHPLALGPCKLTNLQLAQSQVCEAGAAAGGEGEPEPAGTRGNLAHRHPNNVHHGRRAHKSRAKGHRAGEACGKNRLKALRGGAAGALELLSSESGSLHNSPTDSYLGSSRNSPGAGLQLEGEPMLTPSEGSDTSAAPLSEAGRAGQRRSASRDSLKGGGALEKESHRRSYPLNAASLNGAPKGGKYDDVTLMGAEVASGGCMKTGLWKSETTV
# UniProt Q96G46: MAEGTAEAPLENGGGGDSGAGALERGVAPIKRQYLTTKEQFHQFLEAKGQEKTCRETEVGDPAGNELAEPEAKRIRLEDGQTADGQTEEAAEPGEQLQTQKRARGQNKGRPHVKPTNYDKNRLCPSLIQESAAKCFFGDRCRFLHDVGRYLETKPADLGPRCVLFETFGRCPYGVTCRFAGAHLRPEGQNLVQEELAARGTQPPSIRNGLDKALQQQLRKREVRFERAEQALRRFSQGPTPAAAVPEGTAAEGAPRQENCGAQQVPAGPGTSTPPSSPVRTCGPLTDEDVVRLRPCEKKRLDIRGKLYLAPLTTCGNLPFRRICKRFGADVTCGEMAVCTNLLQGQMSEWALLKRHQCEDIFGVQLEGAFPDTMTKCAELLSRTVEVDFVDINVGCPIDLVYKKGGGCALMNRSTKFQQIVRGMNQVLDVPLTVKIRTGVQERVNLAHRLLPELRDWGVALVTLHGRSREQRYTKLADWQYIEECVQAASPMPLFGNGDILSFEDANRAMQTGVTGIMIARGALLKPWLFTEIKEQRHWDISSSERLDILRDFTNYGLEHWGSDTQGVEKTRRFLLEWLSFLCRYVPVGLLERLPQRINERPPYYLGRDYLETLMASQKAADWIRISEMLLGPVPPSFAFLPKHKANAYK
# UniProt Q96P47: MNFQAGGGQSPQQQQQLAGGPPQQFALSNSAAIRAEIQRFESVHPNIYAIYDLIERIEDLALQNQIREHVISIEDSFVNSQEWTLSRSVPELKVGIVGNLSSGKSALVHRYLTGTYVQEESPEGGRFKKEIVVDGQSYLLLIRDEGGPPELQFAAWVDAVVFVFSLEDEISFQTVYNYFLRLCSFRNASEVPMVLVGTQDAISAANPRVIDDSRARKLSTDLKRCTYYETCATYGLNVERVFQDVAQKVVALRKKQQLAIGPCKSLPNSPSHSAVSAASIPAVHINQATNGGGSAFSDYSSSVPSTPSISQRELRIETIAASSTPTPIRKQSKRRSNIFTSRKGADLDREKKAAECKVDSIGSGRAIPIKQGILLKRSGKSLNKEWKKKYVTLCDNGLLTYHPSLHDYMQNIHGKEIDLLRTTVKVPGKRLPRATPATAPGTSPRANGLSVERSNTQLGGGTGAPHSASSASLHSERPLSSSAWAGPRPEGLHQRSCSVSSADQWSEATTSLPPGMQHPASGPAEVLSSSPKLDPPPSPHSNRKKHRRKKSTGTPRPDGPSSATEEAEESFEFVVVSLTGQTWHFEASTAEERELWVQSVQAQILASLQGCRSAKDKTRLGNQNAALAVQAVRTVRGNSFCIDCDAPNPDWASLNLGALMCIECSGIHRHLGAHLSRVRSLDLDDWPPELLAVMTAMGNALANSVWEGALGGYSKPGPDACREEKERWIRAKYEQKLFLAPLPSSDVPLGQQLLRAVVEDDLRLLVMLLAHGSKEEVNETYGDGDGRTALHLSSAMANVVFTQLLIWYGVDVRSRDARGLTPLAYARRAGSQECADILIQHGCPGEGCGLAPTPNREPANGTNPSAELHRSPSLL
# UniProt Q96MX3: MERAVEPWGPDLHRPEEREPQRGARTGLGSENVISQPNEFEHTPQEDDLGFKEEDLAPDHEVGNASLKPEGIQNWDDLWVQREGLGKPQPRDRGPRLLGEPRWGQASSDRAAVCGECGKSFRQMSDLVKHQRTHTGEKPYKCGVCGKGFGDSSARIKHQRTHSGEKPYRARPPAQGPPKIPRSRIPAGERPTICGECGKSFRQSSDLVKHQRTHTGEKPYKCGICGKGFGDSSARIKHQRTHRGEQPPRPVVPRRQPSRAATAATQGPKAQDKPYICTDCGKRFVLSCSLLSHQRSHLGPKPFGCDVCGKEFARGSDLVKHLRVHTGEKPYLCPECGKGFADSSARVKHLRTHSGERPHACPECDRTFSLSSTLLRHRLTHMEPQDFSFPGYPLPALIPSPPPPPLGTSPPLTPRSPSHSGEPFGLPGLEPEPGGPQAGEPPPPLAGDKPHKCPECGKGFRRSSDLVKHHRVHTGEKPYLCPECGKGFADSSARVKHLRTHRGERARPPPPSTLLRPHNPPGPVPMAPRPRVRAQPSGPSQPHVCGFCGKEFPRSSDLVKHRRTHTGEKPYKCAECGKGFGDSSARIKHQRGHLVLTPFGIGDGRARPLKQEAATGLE
# UniProt Q96IX5: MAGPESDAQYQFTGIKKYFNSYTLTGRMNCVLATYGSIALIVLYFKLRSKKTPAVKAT
# UniProt Q96I51, whole entry, looked up: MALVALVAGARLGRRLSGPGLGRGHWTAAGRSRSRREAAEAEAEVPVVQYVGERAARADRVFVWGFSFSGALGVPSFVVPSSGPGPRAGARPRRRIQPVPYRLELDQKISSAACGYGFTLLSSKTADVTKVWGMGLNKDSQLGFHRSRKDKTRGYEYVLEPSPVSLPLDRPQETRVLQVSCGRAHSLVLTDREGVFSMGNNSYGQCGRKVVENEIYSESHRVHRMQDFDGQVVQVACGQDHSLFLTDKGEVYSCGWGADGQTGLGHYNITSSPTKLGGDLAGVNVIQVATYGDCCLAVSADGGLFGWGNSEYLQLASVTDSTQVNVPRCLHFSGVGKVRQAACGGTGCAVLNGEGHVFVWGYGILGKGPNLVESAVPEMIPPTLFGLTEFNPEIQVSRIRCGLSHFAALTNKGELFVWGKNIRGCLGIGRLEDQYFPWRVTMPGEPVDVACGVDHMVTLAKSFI
# UniProt Q96QZ7: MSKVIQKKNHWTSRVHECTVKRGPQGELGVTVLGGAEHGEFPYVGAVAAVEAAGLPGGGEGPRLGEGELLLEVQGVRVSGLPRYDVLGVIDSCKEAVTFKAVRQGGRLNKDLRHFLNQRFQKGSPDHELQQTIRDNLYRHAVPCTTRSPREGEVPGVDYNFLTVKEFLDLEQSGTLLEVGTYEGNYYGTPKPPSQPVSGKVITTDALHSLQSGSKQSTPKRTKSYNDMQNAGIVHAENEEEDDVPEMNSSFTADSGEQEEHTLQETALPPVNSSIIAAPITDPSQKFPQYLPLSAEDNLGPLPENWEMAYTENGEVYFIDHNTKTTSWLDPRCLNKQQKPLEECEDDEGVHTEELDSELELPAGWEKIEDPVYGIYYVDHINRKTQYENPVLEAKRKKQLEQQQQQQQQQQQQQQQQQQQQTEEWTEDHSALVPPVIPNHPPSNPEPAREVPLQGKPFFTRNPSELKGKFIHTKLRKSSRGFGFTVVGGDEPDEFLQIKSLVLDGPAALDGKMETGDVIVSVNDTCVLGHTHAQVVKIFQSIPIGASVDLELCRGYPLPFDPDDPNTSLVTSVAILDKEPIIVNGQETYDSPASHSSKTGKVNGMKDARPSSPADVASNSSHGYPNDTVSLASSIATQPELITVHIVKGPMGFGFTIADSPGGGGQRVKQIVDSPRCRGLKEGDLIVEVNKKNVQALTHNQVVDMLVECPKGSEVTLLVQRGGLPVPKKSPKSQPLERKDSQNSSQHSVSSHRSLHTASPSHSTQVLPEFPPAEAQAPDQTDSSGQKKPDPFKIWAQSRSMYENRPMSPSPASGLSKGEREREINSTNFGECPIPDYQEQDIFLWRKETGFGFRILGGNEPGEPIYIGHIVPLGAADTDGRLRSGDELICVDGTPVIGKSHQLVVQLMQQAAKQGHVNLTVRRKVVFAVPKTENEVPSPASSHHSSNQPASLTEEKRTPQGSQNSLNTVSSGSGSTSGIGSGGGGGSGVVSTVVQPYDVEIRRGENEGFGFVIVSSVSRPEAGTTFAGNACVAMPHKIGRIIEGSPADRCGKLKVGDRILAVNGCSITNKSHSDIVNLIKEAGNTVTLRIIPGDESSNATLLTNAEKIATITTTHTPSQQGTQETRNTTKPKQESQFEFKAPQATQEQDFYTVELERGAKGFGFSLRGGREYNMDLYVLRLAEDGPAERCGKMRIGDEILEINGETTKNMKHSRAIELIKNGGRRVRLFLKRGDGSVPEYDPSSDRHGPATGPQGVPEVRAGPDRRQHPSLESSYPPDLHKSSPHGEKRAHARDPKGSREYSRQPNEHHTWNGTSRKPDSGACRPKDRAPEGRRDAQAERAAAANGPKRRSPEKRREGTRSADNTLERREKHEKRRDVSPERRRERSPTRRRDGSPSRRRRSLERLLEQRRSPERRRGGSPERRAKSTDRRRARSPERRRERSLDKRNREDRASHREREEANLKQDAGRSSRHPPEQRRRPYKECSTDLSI
# UniProt Q96HS1, whole entry: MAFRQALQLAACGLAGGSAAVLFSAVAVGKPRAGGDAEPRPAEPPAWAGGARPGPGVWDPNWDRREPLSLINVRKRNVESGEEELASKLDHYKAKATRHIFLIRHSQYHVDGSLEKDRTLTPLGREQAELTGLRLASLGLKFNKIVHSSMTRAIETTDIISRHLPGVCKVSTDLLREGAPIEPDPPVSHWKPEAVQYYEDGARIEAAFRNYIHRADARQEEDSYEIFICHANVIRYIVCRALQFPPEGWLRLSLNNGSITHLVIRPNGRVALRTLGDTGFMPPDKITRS
# UniProt Q96LA8, whole entry, looked up: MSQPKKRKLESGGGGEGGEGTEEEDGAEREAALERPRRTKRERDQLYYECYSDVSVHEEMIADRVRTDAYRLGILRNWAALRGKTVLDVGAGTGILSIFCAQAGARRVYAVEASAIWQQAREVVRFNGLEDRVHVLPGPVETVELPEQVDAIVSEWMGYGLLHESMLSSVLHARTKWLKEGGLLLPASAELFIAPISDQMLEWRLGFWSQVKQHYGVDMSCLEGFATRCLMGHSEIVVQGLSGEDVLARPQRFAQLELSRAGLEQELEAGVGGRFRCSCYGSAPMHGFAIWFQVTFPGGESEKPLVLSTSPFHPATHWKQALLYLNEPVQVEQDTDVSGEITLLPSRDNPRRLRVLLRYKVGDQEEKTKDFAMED
# UniProt Q96RU7: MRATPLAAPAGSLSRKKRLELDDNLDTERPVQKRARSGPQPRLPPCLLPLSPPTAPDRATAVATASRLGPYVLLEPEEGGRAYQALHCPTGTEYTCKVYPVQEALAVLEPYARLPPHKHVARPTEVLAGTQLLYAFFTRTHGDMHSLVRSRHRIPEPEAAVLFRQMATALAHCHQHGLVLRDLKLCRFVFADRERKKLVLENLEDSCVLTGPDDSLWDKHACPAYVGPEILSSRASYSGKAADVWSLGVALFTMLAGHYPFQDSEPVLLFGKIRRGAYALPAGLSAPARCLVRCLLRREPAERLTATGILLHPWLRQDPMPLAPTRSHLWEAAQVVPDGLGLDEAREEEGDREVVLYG
# The other results are listed elsewhere or left out. Most entries show no effect beyond the scatter of the controls.
# Compound: Cc1nc(Nc2ncc(C(=O)Nc3c(C)cccc3Cl)s2)cc(N2CCN(CCO)CC2)n1 [dasatinib]
# Test: log2 fold change of tryptic peptide abundance, ligand vs vehicle (limited proteolysis) (log2 ratio); higher = more trypsin-susceptible (destabilized)
# Settings: ligand concentration: 5 uM; sample: K562 cleared lysate
row,Target,log2 fold change
1,"KIF16B (peptide sequence: DLLAEKEKFEEER, peptide start residue: 671) (UniProt Q96L93)",0.544
2,"UniProt Q96PE1 (peptide sequence: GGGALEK, peptide start residue: 1282)",0.04
3,"YTHDC1 (peptide sequence: GISPIVFDR, peptide start residue: 306) (UniProt Q96MU7)",-0.694
4,"DUS3L (peptide sequence: RHQCEDIFGVQLEGAFPDTMTK, peptide start residue: 355) (UniProt Q96G46)",0.228
5,"SCLT1 (peptide sequence: QKEEDIEK, peptide start residue: 356) (UniProt Q96NL6)",-0.531
6,"KIF20B (peptide sequence: LEQDILEKESIILK, peptide start residue: 1183) (UniProt Q96Q89)",0.492
7,"THOC1 (peptide sequence: NEGCPSFVKER, peptide start residue: 393) (UniProt Q96FV9)",0.603
8,"UniProt Q96PC5 (peptide sequence: IFQMNEER, peptide start residue: 804)",-0.486
9,"SENP5 (peptide sequence: YGSLVPLSEKEVLGR, peptide start residue: 514) (UniProt Q96HI0)",-0.216
10,"VPS13A (peptide sequence: ALVGGAVGGLAGAASK, peptide start residue: 2908) (UniProt Q96RL7)",0.113
11,"RCHY1 (peptide sequence: QYHCENCGICR, peptide start residue: 99) (UniProt Q96PM5)",-0.663
12,"UniProt Q96FT9 (peptide sequence: RAQQESAQAENHLNGK, peptide start residue: 25)",-0.53
13,"UniProt Q96G04 (peptide sequence: CFLSELIK, peptide start residue: 72)",-0.0993
14,"FAM193B (peptide sequence: GGTLGGIPGEPAVDHR, peptide start residue: 457) (UniProt Q96PV7)",-0.216
15,"AGAP3 (peptide sequence: AAECKVDSIGSGR, peptide start residue: 353) (UniProt Q96P47)",0.441
16,"UniProt Q96NG3 (peptide sequence: GDLSFLSK, peptide start residue: 143)",-0.215
17,"ZNF48 (peptide sequence: AATAATQGPK, peptide start residue: 260) (UniProt Q96MX3)",-0.383
18,"VCPIP1 (peptide sequence: TLHKEELNMSKTER, peptide start residue: 701) (UniProt Q96JH7)",-0.868
19,"UniProt Q96IX5 (peptide sequence: AGPESDAQYQFTGIKK, peptide start residue: 2)",-0.229

# In a second layout: results already given
row | Target | log2 fold change
4 | DUS3L (peptide sequence: RHQCEDIFGVQLEGAFPDTMTK, peptide start residue: 355) (UniProt Q96G46) | 0.228
5 | SCLT1 (peptide sequence: QKEEDIEK, peptide start residue: 356) (UniProt Q96NL6) | -0.531
6 | KIF20B (peptide sequence: LEQDILEKESIILK, peptide start residue: 1183) (UniProt Q96Q89) | 0.492

# More records.

row,Target,log2 fold change
1,"WNK4 (peptide sequence: YLKFDIEIGR, peptide start residue: 173) (UniProt Q96J92)",-0.737
2,"UniProt Q96RE9 (peptide sequence: SPLIIHQR, peptide start residue: 366)",-0.0572
3,"SMARCD1 (peptide sequence: LLEDSALSKYDATK, peptide start residue: 215) (UniProt Q96GM5)",-0.583
4,"UniProt Q96NA8 (peptide sequence: QGCQPLECAR, peptide start residue: 24)",0.998
5,"UniProt Q96I51 (peptide sequence: VLQVSCGR, peptide start residue: 176)",0.087
6,"THOC3 (peptide sequence: RPLLAFACDDKDGK, peptide start residue: 319) (UniProt Q96J01)",0.318
7,"MAGI1 (peptide sequence: SSPHGEKR, peptide start residue: 1282) (UniProt Q96QZ7)",-0.484
8,"XPO6 (peptide sequence: MDRDLPSFTQNVHR, peptide start residue: 1090) (UniProt Q96QU8)",0.32
9,"TRNT1 (peptide sequence: SGYQMEKDELLSYIK, peptide start residue: 418) (UniProt Q96Q11)",-0.855
10,"AJUBA (peptide sequence: LEPTAPALSPR, peptide start residue: 111) (UniProt Q96IF1)",0.462
11,"RAB3IP (peptide sequence: LGYFKEEL, peptide start residue: 469) (UniProt Q96QF0)",0.122
12,"NEURL4 (peptide sequence: SAGTQGDMEK, peptide start residue: 1303) (UniProt Q96JN8)",-0.435
13,"ANKRD27 (peptide sequence: NADQAVPLHLACQQGHFQVVK, peptide start residue: 774) (UniProt Q96NW4)",0.197
14,"UniProt Q96JS3 (peptide sequence: MHISSLEYAAGDITR, peptide start residue: 326)",-0.18
15,"POM121 (peptide sequence: KVQLLPSR, peptide start residue: 507) (UniProt Q96HA1)",-0.167
16,"PGAM5 (peptide sequence: NVESGEEELASK, peptide start residue: 77) (UniProt Q96HS1)",-0.0606
17,"PRMT6 (peptide sequence: EAALERPR, peptide start residue: 30) (UniProt Q96LA8)",0.208
18,"UniProt Q96MK2 (peptide sequence: VLSCPATTLLNQLKK, peptide start residue: 703)",-0.752
19,"TRIB3 (peptide sequence: QMATALAHCHQHGLVLR, peptide start residue: 165) (UniProt Q96RU7)",0.402
